Results are given in words; binding and its absence hold for the method and conditions named. In cells and extracts the contact can be indirect. Some binding calls cover weakened binding; strength is not graded here. Sequences can lack the tags named with a protein.
Molecular target: T1, vinculin T12 eGFP (UniProt P12003)
T1 sequence: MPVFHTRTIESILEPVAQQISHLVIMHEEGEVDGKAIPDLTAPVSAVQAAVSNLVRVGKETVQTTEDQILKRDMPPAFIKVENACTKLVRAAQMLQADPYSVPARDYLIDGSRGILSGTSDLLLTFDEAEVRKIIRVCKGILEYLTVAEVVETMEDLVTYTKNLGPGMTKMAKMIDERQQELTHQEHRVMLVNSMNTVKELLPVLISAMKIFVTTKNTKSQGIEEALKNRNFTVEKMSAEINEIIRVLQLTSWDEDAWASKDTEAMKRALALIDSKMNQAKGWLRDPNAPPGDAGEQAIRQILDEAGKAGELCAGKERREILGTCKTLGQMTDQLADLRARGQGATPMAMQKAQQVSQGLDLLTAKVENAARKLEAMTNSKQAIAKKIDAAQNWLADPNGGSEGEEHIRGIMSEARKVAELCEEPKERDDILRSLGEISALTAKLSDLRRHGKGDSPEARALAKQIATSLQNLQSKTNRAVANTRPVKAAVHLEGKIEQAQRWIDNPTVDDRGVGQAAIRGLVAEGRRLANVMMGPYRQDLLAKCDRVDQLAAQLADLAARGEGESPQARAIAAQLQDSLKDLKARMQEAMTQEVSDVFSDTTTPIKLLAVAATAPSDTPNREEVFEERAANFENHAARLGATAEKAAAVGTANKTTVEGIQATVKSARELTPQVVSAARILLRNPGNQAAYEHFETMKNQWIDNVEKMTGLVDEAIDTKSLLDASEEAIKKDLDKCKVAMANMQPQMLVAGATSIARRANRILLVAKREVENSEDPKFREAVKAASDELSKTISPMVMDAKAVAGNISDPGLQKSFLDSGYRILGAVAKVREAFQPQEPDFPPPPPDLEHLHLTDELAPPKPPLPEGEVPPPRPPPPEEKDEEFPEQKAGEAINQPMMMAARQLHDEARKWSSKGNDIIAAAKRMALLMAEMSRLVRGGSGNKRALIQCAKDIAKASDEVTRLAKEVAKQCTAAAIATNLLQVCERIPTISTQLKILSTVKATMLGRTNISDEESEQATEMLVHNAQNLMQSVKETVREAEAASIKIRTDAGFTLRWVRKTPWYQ
Experiment: co-IP; GFP-vinculin constructs transfected in MDCK α-catenin KD (about 90% α-catenin depletion); GFP-Trap_A immunoprecipitation from lysate (50 mM Tris-HCl pH 7.6, 150 mM NaCl, 1% NP-40, 0.5% deoxycholate); blot for endogenous β-catenin

B1: β-catenin (protein, UniProt B6V8E6 1-781)
chain: MATQADLMELDMAMEPDRKAAVSHWQQQSYLDSGIHSGATTTAPSLSGKGNPEEEDVDTTQVLYEWEQGFSQSFTQEQVADIDGQYAMTRAQRVRAAMFPETLDEGMQIPSTQFDAAHPTNVQRLAEPSQMLKHAVVNLINYQDDAELATRAIPELTKLLNDEDQVVVNKAAVMVHQLSKKEASRHAIMRSPQMVSAIVRTMQNTNDVETARCTAGTLHNLSHHREGLLAIFKSGGIPALVKMLGSPVDSVLFYAITTLHNLLLHQEGAKMAVRLAGGLQKMVALLNKTNVKFLAITTDCLQILAYGNQESKLIILASGGPQALVNIMRTYTYEKLLWTTSRVLKVLSVCSSNKPAIVEAGGMQALGLHLTDPSQRLVQNCLWTLRNLSDAATKQEGMEGLLGTLVQLLGSDDINVVTCAAGILSNLTCNNYKNKMMVCQVGGIEALVRTVLRAGDREDITEPAICALRHLTSRHQEAEMAQNAVRLHYGLPVVVKLLHPPSHWPLIKATVGLIRNLALCPANHAPLREQGAIPRLVQLLVRAHQDTQRRTSMGGTQQQFVEGVRMEEIVEGCTGALHILARDVHNRIVIRGLNTIPLFVQLLYSPIENIQRVAAGVLCELAQDKEAAEAIEAEGATAPLTELLHSRNEGVATYAAAVLFRMSEDKPQDYKKRLSVELTSSLFRTEPMAWNETADLGLDIGAQGEPLGYRQDDPSYRSFHSGGYGQDALGMDPMMEHEMGGHHPGADYPVDGLPDLGHAQDLMDGLPPGDSNQLAWFDTDL
  binding: binds
